{"sequences": {"note": "Amino acid sequences for entries named in this document (tags omitted).", "UniProt Q61188, whole entry": "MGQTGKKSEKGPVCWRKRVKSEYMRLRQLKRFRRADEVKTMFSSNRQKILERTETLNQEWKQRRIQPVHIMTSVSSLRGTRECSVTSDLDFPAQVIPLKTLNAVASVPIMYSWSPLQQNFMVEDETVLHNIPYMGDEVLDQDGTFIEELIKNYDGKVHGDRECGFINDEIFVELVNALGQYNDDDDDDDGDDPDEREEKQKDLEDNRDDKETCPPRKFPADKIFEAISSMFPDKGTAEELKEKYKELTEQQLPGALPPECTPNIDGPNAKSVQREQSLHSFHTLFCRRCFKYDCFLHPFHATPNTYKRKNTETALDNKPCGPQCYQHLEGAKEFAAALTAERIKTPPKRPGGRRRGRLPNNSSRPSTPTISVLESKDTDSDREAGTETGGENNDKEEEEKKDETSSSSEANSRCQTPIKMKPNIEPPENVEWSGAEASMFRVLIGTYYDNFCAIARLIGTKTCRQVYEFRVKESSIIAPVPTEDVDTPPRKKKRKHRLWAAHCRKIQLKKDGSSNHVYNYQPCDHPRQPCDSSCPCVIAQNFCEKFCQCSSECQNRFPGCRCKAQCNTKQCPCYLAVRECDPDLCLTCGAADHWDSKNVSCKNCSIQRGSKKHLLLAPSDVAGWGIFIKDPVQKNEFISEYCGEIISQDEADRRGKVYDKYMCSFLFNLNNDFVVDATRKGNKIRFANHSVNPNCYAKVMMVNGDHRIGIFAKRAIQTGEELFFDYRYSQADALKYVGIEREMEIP"}, "source": "ChEMBL document CHEMBL5674883", "about": "“The Heterochromatin Landscape in Migrating Cells and the Importance of H3K27me3 for Associated Transcriptome Alterations” (Cells, 2018)", "format_in_all_cases": "cell-based", "key": {"[1]": {"target": "Histone-lysine N-methyltransferase EZH2 (Mus musculus) (UniProt Q61188)", "test": "Inhibition of EZH2 in mouse B16-F1 migrating cells assessed as fold change in H3K27me3-buffered regulated Shc4-mRNA expression at 3 uM measured by ChIP-seq analysis relative to control cells"}, "[2]": {"target": "Histone-lysine N-methyltransferase EZH2 (Mus musculus) (UniProt Q61188)", "test": "Inhibition of EZH2 in mouse B16-F1 migrating cells assessed as fold change in H3K27me3-buffered regulated 2810474O19Rik-mRNA expression at 3 uM measured by ChIP-seq analysis relative to control cells"}, "[3]": {"target": "Histone-lysine N-methyltransferase EZH2 (Mus musculus) (UniProt Q61188)", "test": "Inhibition of EZH2 in mouse B16-F1 migrating cells assessed as fold change in H3K27me3-buffered regulated Jmjd1c-mRNA expression at 3 uM measured by ChIP-seq analysis relative to control cells"}, "[4]": {"target": "Histone-lysine N-methyltransferase EZH2 (Mus musculus) (UniProt Q61188)", "test": "Inhibition of EZH2 in mouse B16-F1 migrating cells assessed as fold change in H3K27me3-dependent regulated Gm37352-mRNA expression at 3 uM measured by ChIP-seq analysis relative to control cells"}, "[5]": {"target": "Histone-lysine N-methyltransferase EZH2 (Mus musculus) (UniProt Q61188)", "test": "Inhibition of EZH2 in mouse B16-F1 migrating cells assessed as fold change in H3K27me3-buffered regulated Kctd12-mRNA expression at 3 uM measured by ChIP-seq analysis relative to control cells"}, "[6]": {"target": "Histone-lysine N-methyltransferase EZH2 (Mus musculus) (UniProt Q61188)", "test": "Inhibition of EZH2 in mouse B16-F1 migrating cells assessed as fold change in H3K27me3-buffered regulated Lrfn1-mRNA expression at 3 uM measured by ChIP-seq analysis relative to control cells"}, "[7]": {"target": "Histone-lysine N-methyltransferase EZH2 (Mus musculus) (UniProt Q61188)", "test": "Inhibition of EZH2 in mouse B16-F1 migrating cells assessed as fold change in H3K27me3-buffered regulated Gm44103-mRNA expression at 3 uM measured by ChIP-seq analysis relative to control cells"}, "[8]": {"target": "Histone-lysine N-methyltransferase EZH2 (Mus musculus) (UniProt Q61188)", "test": "Inhibition of EZH2 in mouse B16-F1 migrating cells assessed as fold change in H3K27me3-buffered regulated G0s2-mRNA expression at 3 uM measured by ChIP-seq analysis relative to control cells"}, "[9]": {"target": "Histone-lysine N-methyltransferase EZH2 (Mus musculus) (UniProt Q61188)", "test": "Inhibition of EZH2 in mouse B16-F1 migrating cells assessed as fold change in H3K27me3-dependent regulated Sertad1-mRNA expression at 3 uM measured by ChIP-seq analysis relative to control cells"}, "[10]": {"target": "Histone-lysine N-methyltransferase EZH2 (Mus musculus) (UniProt Q61188)", "test": "Inhibition of EZH2 in mouse B16-F1 migrating cells assessed as fold change in H3K27me3-buffered regulated Kank1-mRNA expression at 3 uM measured by ChIP-seq analysis relative to control cells"}, "[11]": {"target": "Histone-lysine N-methyltransferase EZH2 (Mus musculus) (UniProt Q61188)", "test": "Inhibition of EZH2 in mouse B16-F1 migrating cells assessed as fold change in H3K27me3-independent regulated Vwf-mRNA expression at 3 uM measured by ChIP-seq analysis relative to control cells"}, "[12]": {"target": "T1, RNA polymerase II (Mus musculus) (UniProt P08775+Q8CFI7+P97760+A0A3Q4L2S8+Q80UW8+P61219+P62488+Q923G2+P60898+O08740+Q63871+P62876)", "test": "Inhibition of RNA polymerase II in mouse B16-F1 migrating cells assessed as fold change in Tmed3-RNA stability at 0.1 mM measured by ChIP-seq analysis relative to control cells"}, "[13]": {"target": "T1, RNA polymerase II (Mus musculus)", "test": "Inhibition of RNA polymerase II in mouse B16-F1 migrating cells assessed as fold change in Blm-RNA stability at 0.1 mM measured by ChIP-seq analysis relative to control cells"}, "[14]": {"target": "T1, RNA polymerase II (Mus musculus)", "test": "Inhibition of RNA polymerase II in mouse B16-F1 migrating cells assessed as fold change in Rtl8a-RNA stability at 0.1 mM measured by ChIP-seq analysis relative to control cells"}, "[15]": {"target": "T1, RNA polymerase II (Mus musculus)", "test": "Inhibition of RNA polymerase II in mouse B16-F1 migrating cells assessed as fold change in Prpf40a-RNA stability at 0.1 mM measured by ChIP-seq analysis relative to control cells"}, "[16]": {"target": "T1, RNA polymerase II (Mus musculus)", "test": "Inhibition of RNA polymerase II in mouse B16-F1 migrating cells assessed as fold change in Hnrnpa3-RNA stability at 0.1 mM measured by ChIP-seq analysis relative to control cells"}, "[17]": {"target": "T1, RNA polymerase II (Mus musculus)", "test": "Inhibition of RNA polymerase II in mouse B16-F1 migrating cells assessed as fold change in Fnbp1l-RNA stability at 0.1 mM measured by ChIP-seq analysis relative to control cells"}, "[18]": {"target": "T1, RNA polymerase II (Mus musculus)", "test": "Inhibition of RNA polymerase II in mouse B16-F1 migrating cells assessed as fold change in Kdelc2-RNA stability at 0.1 mM measured by ChIP-seq analysis relative to control cells"}, "[19]": {"target": "T1, RNA polymerase II (Mus musculus)", "test": "Inhibition of RNA polymerase II in mouse B16-F1 migrating cells assessed as fold change in Arhgdia-RNA stability at 0.1 mM measured by ChIP-seq analysis relative to control cells"}, "[20]": {"target": "T1, RNA polymerase II (Mus musculus)", "test": "Inhibition of RNA polymerase II in mouse B16-F1 migrating cells assessed as fold change in 0610012G03Rik-RNA stability at 0.1 mM measured by ChIP-seq analysis relative to control cells"}, "[21]": {"target": "T1, RNA polymerase II (Mus musculus)", "test": "Inhibition of RNA polymerase II in mouse B16-F1 migrating cells assessed as fold change in Rabep1-RNA stability at 0.1 mM measured by ChIP-seq analysis relative to control cells"}, "[22]": {"target": "T1, RNA polymerase II (Mus musculus)", "test": "Inhibition of RNA polymerase II in mouse B16-F1 migrating cells assessed as fold change in Pi4k2b-RNA stability at 0.1 mM measured by ChIP-seq analysis relative to control cells"}, "[23]": {"target": "T1, RNA polymerase II (Mus musculus)", "test": "Inhibition of RNA polymerase II in mouse B16-F1 migrating cells assessed as fold change in Erap1-RNA stability at 0.1 mM measured by ChIP-seq analysis relative to control cells"}, "[24]": {"target": "T1, RNA polymerase II (Mus musculus)", "test": "Inhibition of RNA polymerase II in mouse B16-F1 migrating cells assessed as fold change in Trim71-RNA stability at 0.1 mM measured by ChIP-seq analysis relative to control cells"}, "[25]": {"target": "T1, RNA polymerase II (Mus musculus)", "test": "Inhibition of RNA polymerase II in mouse B16-F1 migrating cells assessed as fold change in 2610306M01Rik-RNA stability at 0.1 mM measured by ChIP-seq analysis relative to control cells"}, "[26]": {"target": "T1, RNA polymerase II (Mus musculus)", "test": "Inhibition of RNA polymerase II in mouse B16-F1 migrating cells assessed as fold change in Agpat2-RNA stability at 0.1 mM measured by ChIP-seq analysis relative to control cells"}, "[27]": {"target": "T1, RNA polymerase II (Mus musculus)", "test": "Inhibition of RNA polymerase II in mouse B16-F1 migrating cells assessed as fold change in Itgb1-RNA stability at 0.1 mM measured by ChIP-seq analysis relative to control cells"}, "[28]": {"target": "T1, RNA polymerase II (Mus musculus)", "test": "Inhibition of RNA polymerase II in mouse B16-F1 migrating cells assessed as fold change in Gcc2-RNA stability at 0.1 mM measured by ChIP-seq analysis relative to control cells"}, "[29]": {"target": "T1, RNA polymerase II (Mus musculus)", "test": "Inhibition of RNA polymerase II in mouse B16-F1 migrating cells assessed as fold change in Fnip1-RNA stability at 0.1 mM measured by ChIP-seq analysis relative to control cells"}, "[30]": {"target": "T1, RNA polymerase II (Mus musculus)", "test": "Inhibition of RNA polymerase II in mouse B16-F1 migrating cells assessed as fold change in Gnl1-RNA stability at 0.1 mM measured by ChIP-seq analysis relative to control cells"}}, "note": "This continues a long series; more values of the same kind are listed elsewhere.", "data": [{"smiles": "CCCc1cc(C)[nH]c(=O)c1CNC(=O)c1cc(-c2ccnc(N3CCN(C)CC3)c2)cc2c1cnn2C(C)C", "values": [{"measurement": "log2FC", "setting": "[1]", "value": -0.39}, {"measurement": "log2FC", "setting": "[2]", "value": -0.54}, {"measurement": "log2FC", "setting": "[3]", "value": -0.43}, {"measurement": "log2FC", "setting": "[4]", "value": 0.65}, {"measurement": "log2FC", "setting": "[5]", "value": 0.57}, {"measurement": "log2FC", "setting": "[6]", "value": -0.72}, {"measurement": "log2FC", "setting": "[7]", "value": -0.68}, {"measurement": "log2FC", "setting": "[8]", "value": -1.01}, {"measurement": "log2FC", "setting": "[9]", "value": 0.25}, {"measurement": "log2FC", "setting": "[10]", "value": -0.58}, {"measurement": "log2FC", "setting": "[11]", "value": 0.52}]}, {"smiles": "OC[C@H]1O[C@@H](n2cnc3cc(Cl)c(Cl)cc32)[C@H](O)[C@@H]1O", "values": [{"measurement": "log2FC", "setting": "[12]", "value": 0.53}, {"measurement": "log2FC", "setting": "[13]", "value": -0.57}, {"measurement": "log2FC", "setting": "[14]", "value": 0.63}, {"measurement": "log2FC", "setting": "[15]", "value": -0.65}, {"measurement": "log2FC", "setting": "[16]", "value": -0.52}, {"measurement": "log2FC", "setting": "[17]", "value": -0.51}, {"measurement": "log2FC", "setting": "[18]", "value": -0.69}, {"measurement": "log2FC", "setting": "[19]", "value": 0.45}, {"measurement": "log2FC", "setting": "[20]", "value": 0.65}, {"measurement": "log2FC", "setting": "[21]", "value": -0.44}, {"measurement": "log2FC", "setting": "[22]", "value": -0.64}, {"measurement": "log2FC", "setting": "[23]", "value": -0.64}, {"measurement": "log2FC", "setting": "[24]", "value": -0.61}, {"measurement": "log2FC", "setting": "[25]", "value": 0.9}, {"measurement": "log2FC", "setting": "[26]", "value": 0.42}, {"measurement": "log2FC", "setting": "[27]", "value": -0.48}, {"measurement": "log2FC", "setting": "[28]", "value": -0.66}, {"measurement": "log2FC", "setting": "[29]", "value": -0.51}, {"measurement": "log2FC", "setting": "[30]", "value": 0.45}]}]}
